In paper PMC2294136:
Changes are numbered by the printed parent chain. No constants are given. Whether binding was seen depends on the method and setting. In cells and extracts the contact can be indirect. Some binding calls cover weakened binding; strength is not graded here. Tags and fused reporters may be left off the sequences shown.

T1: HA-tagged Skp1 (S. pombe) (UniProt Q9Y709)
T1 sequence: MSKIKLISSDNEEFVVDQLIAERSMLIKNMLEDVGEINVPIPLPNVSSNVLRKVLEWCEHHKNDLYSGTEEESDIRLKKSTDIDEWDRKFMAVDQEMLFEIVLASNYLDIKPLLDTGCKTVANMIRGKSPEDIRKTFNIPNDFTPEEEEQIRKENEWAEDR

B1: GFP-Fbh1 (wild type) (protein, UniProt Q9USU3 1-878)
chain: MSAQHLHSCKFYRLPLEIIPLICRFLSVQDIQSFIRVFPSFQTILDSSNDLFWKKKNYELRIRRNRLLRGSYAAGVSSSAMNGFVNGTQISSTPAEREYYSKSDEIKNICGLPPGPMKVEQIGHAIDHLVSETHTVDHLGSSIKASFFHIDDVPLEWISSICMQVQSFFSPAAREAISSLKSRTTTSNLLLSLFVGILFEDDLWYFFNTLYMLSSTSAIEFAYFLDSIFTVVRTDYEHYRDPLSQTLITSCTRIHNIVAVIESPYDEPNTKGLTSEQKMIVECQLNPGEVLKVKAFAGTGKTKALLEFAKSRPKDKILYVAFNKAAKEDAELRFPFNVKCSTMHGLAYGAILAQADLPQAKLERQLSNSTIASLLSLQVAFPKANRKNNPGTPSASLVASHIMFTLNRFMHSTDWQLGFRHISKRSLEVTKLSKEKLLAYTKKLWSLIVNFEYTHAPLIPDAYMKLLHLYEFPNIFSKYDYILFDEAQDFTPCMVDLIYRQKHARIVIVGDAHQCIYGFRGANACAFNENLYPSTKQLCLTKSFRFGNSVAKYANFLLSLKGENVKLKGVQNDHAYWSSASNPNNVSGAFRFFPHTIIFRTNKELILQSIRLSVSLPKEIPIAILGSMRKKAFQLLRSGSELAHGQRPSHPKLKDFSSWGEFEVHVKNSAEEDAELALVYDMADELFSESFLSRLDNCEKRLMDSKDDGDNGIILATAHQSKGLEWDNVQLGNDFRPKFDSVSFSRIGSSRYLQEEINILYVALTRAKKRLILNDTITKLYALECGLVRFAGGILTEDQLQPGKVALFVDWQIDKFSFFYETPAEGYNLLVEANEKSVWDIFFGVLSGAWQNYIANTSERLKRSMLFIENQLFAVHDQ
B2: GFP-Fbh1-hl (protein, UniProt Q9USU3 1-878)
chain: B1 chain with K301A
B3: GFP-Fbh1-fb (protein, UniProt Q9USU3 1-878)
chain: B1 chain with P15A, L26A

What follows are binders tested against T1, HA-tagged Skp1 (S. pombe) (assay: co-IP; extracts of S. pombe fbh1Δ cells expressing HA-Skp1 and GFP-Fbh1 versions; immunoprecipitated with anti-HA antibody (12CA5) and protein G-agarose, 2 h at 4°C, buffer A (50 mM Tris-HCl pH 7.5, 15 mM EGTA, 100 mM NaCl, 0.1% Triton X-100, 1 mM DTT); western blot with anti-GFP or anti-HA).

Binder | binding
B1 | binds
B2 | binds
B3 | no binding
